{"sequences": {"note": "Sequences of proteins named here, by UniProt entry; tags and fusion partners are left off.", "UniProt P55852": "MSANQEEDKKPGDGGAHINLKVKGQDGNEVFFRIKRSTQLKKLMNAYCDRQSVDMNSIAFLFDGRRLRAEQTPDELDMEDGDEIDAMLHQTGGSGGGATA"}, "source": "paper PMC7461331", "about": "“Stability of Begomoviral pathogenicity determinant βC1 is modulated by mutually antagonistic SUMOylation and SIM interactions” (BMC Biology, 2020)", "target": "6X HIS tagged AtSUMO1, recombinant (Arabidopsis thaliana) (UniProt P55852)", "experiment": "SEC; size exclusion profile of recombinant NiNTA purified 6X HIS SUMO proteins on a SD75 column, void volume 40.25 ml; AtSUMO3 and AtSUMO5 after refolding; both purified", "note": "These are yes or no findings as the source states them, for the method shown.", "data": [{"substance": "6X HIS tagged AtSUMO1, recombinant (from UniProt P55852 1-100)", "values": [{"measurement": "binding", "value": "no binding"}]}]}
